Reference: patent publication US20200138854A1, “Method of Detecting and Quantifying Bile Acid from Saliva” (Ironwood Pharmaceuticals, Inc., priority 2017, published 2020)
Where “and” joins values, the source holds several entries; their conditions need not be identical. Identical values can stand only once.

Experiments:
[1] = Quality controls: accuracy and precision, batch acceptance (cholestyramine-treated human saliva); conditions: for % Bias QC-Mid, batch acceptance / Mean concentration QC-Mid, batch acceptance / % Bias QC-High, batch acceptance / Mean concentration QC-High, batch acceptance: run 35; for Mean quality control concentration: Table 30, n 9
[2] = Matrix effects on quantification (untreated human saliva)
[3] = nominal 8.00 ng/mL, cholestyramine-treated human saliva
[4] = nominal 8.00 ng/mL, cholestyramine-treated human saliva, runs 31, 32, 33
[5] = nominal 80.0 ng/mL, cholestyramine-treated human saliva
[6] = nominal 8.00 ng/mL; cholestyramine-treated human saliva; run 34
[7] = nominal 80.0 ng/mL; cholestyramine-treated human saliva; run 34
[8] = nominal 80.0 ng/mL; untreated human saliva; run 34
[9] = cholestyramine-treated human saliva, nominal 8.00 ng/mL
[10] = cholestyramine-treated human saliva, nominal 80.0 ng/mL
[11] = nominal 8.00 ng/mL, one value per run 31, 32, 33
[12] = cholestyramine-treated human saliva, nominal 8.00 ng/mL, run 34
[13] = cholestyramine-treated human saliva, nominal 80.0 ng/mL, run 34
[14] = untreated human saliva, nominal 80.0 ng/mL, run 34
[15] = untreated human saliva, unspiked, run 34

In the case of C[C@H](CCC(=O)NCC(=O)O)[C@H]1CC[C@H]2[C@@H]3[C@H](O)C[C@@H]4C[C@H](O)CC[C@]4(C)[C@H]3C[C@H](O)[C@]12C [Glycocholic Acid, Glycocholic acid], the “Intra-Run Mean concentration QC-LLOQ” value ([1]; nominal 0.500 ng/mL, cholestyramine-treated human saliva, runs 31, 32, 33) is reported as 0.574 ng/mL and 0.485 ng/mL and 0.497 ng/mL, the “Inter-Run % Bias QC-Mid” value [1, 3] is reported as −2.4% and the “% Bias QC-Mid, batch acceptance” value [1, 3] is reported as 2.3%. For the same compound, the “Mean concentration QC-Mid, batch acceptance” value [1, 3] was 8.18 ng/mL, the “Intra-Run % Bias QC-Mid” value [1, 4] was 1.0% and −2.2% and −5.9% and the “Intra-Run Mean concentration QC-Mid” value [1, 4] was 8.08 ng/mL and 7.82 ng/mL and 7.53 ng/mL. For the same compound, the “Inter-Run % Bias QC-High” value [1, 5] was 0.1%, the “% Bias QC-High, batch acceptance” value [1, 5] was −1.0% and the “Mean concentration QC-High, batch acceptance” value [1, 5] was 79.2 ng/mL. The “Intra-Run Mean concentration QC-High” value ([1]; nominal 80.0 ng/mL, cholestyramine-treated human saliva, runs 31, 32, 33) was 80.5 ng/mL and 80.3 ng/mL and 79.4 ng/mL, the “% Bias QC-Mid” value [2, 6] was 3.7% and the “Mean concentration QC-Mid” value [2, 6] was 8.30 ng/mL. For the same compound, the “Concentration QC-Mid” value ([2]; nominal 8.00 ng/mL; cholestyramine-treated human saliva; run 34; single determinations) was 8.56 ng/mL and 8.30 ng/mL and 8.04 ng/mL, the “% Bias QC-High” value [2, 7] was 1.4% and the “Mean concentration QC-High” value [2, 7] was 81.1 ng/mL. For the same compound, the “Concentration QC-High” value ([2]; nominal 80.0 ng/mL; cholestyramine-treated human saliva; run 34; single determinations) was 81.1 ng/mL and 81.4 ng/mL and 80.8 ng/mL, the “% Bias QC-High” value [2, 8] was 0.4% and the “Mean concentration QC-High” value [2, 8] was 80.4 ng/mL. For the same compound, the “Concentration QC-High” value ([2]; nominal 80.0 ng/mL; untreated human saliva; run 34; single determinations) was 80.6 ng/mL and 77.6 ng/mL and 79.9 ng/mL and 82.1 ng/mL and 80.5 ng/mL and 81.4 ng/mL, the “Mean concentration Control Blank” value ([2]; untreated human saliva, not spiked (endogenous level); run 34) was “BQL (BQL: Below quantitation limit (0.500 ng/mL))” and the “Concentration Control Blank” value ([2]; untreated human saliva, not spiked (endogenous level); run 34; single determinations) was “BQL (BQL: Below quantitation limit (0.500 ng/mL))”.
In the case of CC(CCC(=O)NCC(=O)O)C1CCC2C3C(O)CC4CC(O)CCC4(C)C3CCC12C (stereo not drawn) [Glycochenodeoxycholic Acid, Glycochenodeoxycholic acid], the “Mean quality control concentration” value ([1]; QC-High, nominal 80.0 ng/mL) is reported as 87.6 ng/mL, the “Mean quality control concentration” value ([1]; QC-Mid, nominal 8.00 ng/mL) is reported as 8.47 ng/mL and the “% Bias QC-Mid, batch acceptance” value [1, 9] is reported as 7.5%. For the same compound, the “Mean concentration QC-Mid, batch acceptance” value [1, 9] was 8.60 ng/mL, the “% Bias QC-High, batch acceptance” value [1, 10] was 3.6% and the “Mean concentration QC-High, batch acceptance” value [1, 10] was 82.9 ng/mL. For the same compound, the “Inter-Run % Bias QC-Mid” value ([1]; nominal 8.00 ng/mL) was 2.3%, the “Intra-Run % Bias QC-Mid” value [1, 11] was 7.1% and −2.1% and 2.0% and the “Intra-Run Mean QC-Mid” value [1, 11] was 8.57 ng/mL and 7.83 ng/mL and 8.16 ng/mL. The “Inter-Run % Bias QC-High” value ([1]; nominal 80.0 ng/mL) was 5.9%, the “% Bias QC-Mid” value [2, 12] was 3.7% and the “Concentration QC-Mid” value [2, 12] was 8.61 ng/mL and 8.30 ng/mL and 7.99 ng/mL. The “Mean concentration QC-Mid” value [2, 12] was 8.30 ng/mL, the “% Bias QC-High” value [2, 13] was 1.5% and the “Concentration QC-High” value [2, 13] was 79.5 ng/mL and 81.0 ng/mL and 83.1 ng/mL. The “Mean concentration QC-High” value [2, 13] was 81.2 ng/mL, the “% Bias QC-High” value [2, 14] was −0.5% and the “Concentration QC-High” value [2, 14] was 81.3 ng/mL and 78.9 ng/mL and 79.5 ng/mL and 79.8 ng/mL and 78.5 ng/mL. For the same compound, the “Mean concentration QC-High” value [2, 14] was 79.6 ng/mL, the “Concentration, Control Blank (endogenous level)” value [2, 15] was “BQL (Below quantitation limit (<0.500 ng/mL))” and the “Mean concentration Control Blank (endogenous level)” value [2, 15] was “BQL (Below quantitation limit (<0.500 ng/mL))”.
